Laboratory results as given in publication doi:10.1101/2022.01.21.477277.
Results are given in words; binding and its absence hold for the method and conditions named. Binding calls can cover weak binding; strength is not graded here. Tags and fused reporters may be left off the sequences shown. For some of these results: In cells and extracts the contact can be indirect. Blank lines part the entries; values can stand above or below the binder they belong to.

Key:
[1] = target: GFP tagged N-terminal region of PLP (F1-3), aa 1-1811 (Drosophila); test: co-IP
[2] = target: PLP^F2-F3 (aa 584-1811), yeast two-hybrid fusion (Drosophila); test: two-hybrid

binding [1]: binds
B2: Flag tagged Poe-F2 (aa 1101-2300) (domain or fragment, UniProt Q9VLT5 1101-2300)
chain: NSQMNGNGTPRLSDLILFDSLVAHMQAVAWANKEGLKWPRKESEDAAGEQSAGTSLTSSSNDPELYSSNESIDDQKLKQDDDGKLSSDLQKYNQLVNELMVKLMNSYQLLSVIVRGQMLKQLSSSTPEKALNLIVPIVSDKPAIMLELHAAFLKLLPNEDKQLIANEWPKCLMVNDFAFNGKQHPVEPYILNVIDAHIIELTRGSNYSTLHTLKHCLKSILQLFELLLPHRTANAEVETQLKQLLISSMLDMRTDYLQGHSEHCLREILSGLTQEAQKLLLYEHMVGYCYRMLKEFAADLRQPQSAGPSGGAPLDQDRAMFNESMLFAVLKTMFKMLEKPVAVQAMRQFFKDQRSGSLTTLLLSFTGTSLPVSYARKMLQFVNRLFQLSLQADSQFQHEDLVECFSELATVDVARLKQWLGHIIYGPNVSTDVSTSEALDTTCRMLTSILQPSSSSSSNAQTPTNMATVSAMPSISDQLDPMEIEYDCGTAAGGGESNPGTGGAAANTSQILSLWQAAQPNPSEESSQACDHSDSERNGALLLSFVKSLVKDQSKASQIAPPLFQALLQLGQTLISPPQEGCDFADVLQIMITLADASPARGHVALFNTTLLWLELAKLQLPDKHLKHAENVSAQLRYLSELLQSIGFRGSRQHNPPWDDELQTDIDELYDELAEEGEQDSLLDDSDEDTLNNKLCTFSQTQKEFMNQHWYHCHTCNMINTVGVCSVCARVCHKGHDVSYAKYGNFFCDCGAKEDGSCQALSRRIGSNEVRDSAGIGSYLPSHMSLLAGKKRSSLPVGQPVLTRKDSLTNERIAVLTKLLEPYRETLQHQDQWLLVVRCILEYFDLLLPSINENCMLYSIVGCHKRATAALERLHLLEQSFQVTDQLMFATLGSQEGAFENVRMNYSGDQGQTIKHLLSSGVVRRVAFCCLSSPHGRRQQLAVSHEKGKVTILQLSALLKQADASKRKLTLTQLSSAPIACTVISLAANPCNEDCLAVCGLKECHILTFSSSGSTNEHIVVNPQLENGNYIKKAVWLPGSQTLLAVVTSDYVKIYDLAVDTYSPKYYYLVAVGKIRDCTFVYQDGNYNMLTFASSGYIYTQQLDQQSLAVHGDFYVTNTLELSHQHIKDIAGHIGGGGVSIYYSHTLQLLFYSYSCGRSFFSPLTNVSEGVKGIYHLDTNSASKSASKGPLQPLVQWTEV

binding [1]: binds
B3: Flag tagged Hyd F4 (aa 2412-2887) (domain or fragment, UniProt P51592 2412-2885)
chain: AKIPNLESVQVGTNHSKYVVPFSSILRSRTVSGSSRDQSTLQRRGSNSKILWRSARERKALNLDARPYTPPNSSDNATPESLNDHLSVHLQQIGERLYPKIHSINQTHAPKITGMLLEIPTPQLLSVISSDETLRQKVNEAIEIITFKQKSETSAQSSQPKKSPSVVVVDPVDDDNEPLFYSPGKRGFYTPRQGFASFERINAFRNIGRLIGLCLLQNELLPLFLQRHVLKYILGRKIKFHDLAFFDPALYESFRQIIQNAQTKEGEETINRMELCFVIDLMKEEGCGNRELIPGGRDVAVTSSNIFEYVRRYTEYRLIKSQEKALEALKDGVFDVLPDNSMINLTAEDLRLLLNGVGDINVSTLISYTTFNDESSEGPDKLLKFKKWFWSIVEKMNIMERQDLVYFWTGSPALPASEEGFQPLPSVTIRPADDSHLPTANTCISRLYIPLYSSKSILRSKMLMAIKSKNFGFV

binding [1]: binds
B4: Flag tagged Poe-F1 (aa 1-1100) (domain or fragment, UniProt Q9VLT5 1-1100)
chain: MSAHSGGTDWNSVVKALILNRTGALNKNEVVNLLKAITRCEHDFFEEESNFTQFYTAFAALAADKLMQIKTICQTQICQLHDATAVLIRFIIYRLPRVSVYETKWLLGALKMLCEGRECPASASSSMFDYNAVANVLKSCKHPESTTKSIMPSSSSSGSGASNDKESPKSEIKRSRSDLSSVILQQLIAPLEPGKMTWVPLSEEVTDCTEQILAANVEYFQEQNGVDTLLDVCVSLPILNRYRSKYMETINGGKSLYLPLTQVEATAVKSSMNHMLTDLTILSQAQALIEMQPLTPSRIERLSMCGIAALYNAVLTSIATSVLGMSQASSSQKQTASTSQGSGVGGSSGGQSNKDHDDFEDQACSIVNKALEIYSNIGHMFKTSARIHVYQNHLCYGSWLLISGIQGAMGASGSGGSSSDSASKSASKATKSGSEAGTAPTTPIARVNLFKVQQGFGELNAAIANHSIKLLSELIEDLKVEAACGQSLESTELPEPAQFDILQNYSSLERIVRVLNTATLHQLFTFLATVAYRKACTLKRASAKDRTECEPISYSDSTTYFNDSLSCSDNSEEDDSESYLGHWFKETLSPETHDDNANTSTQERAEQKSALVPKLDEPHEYLDLAADIFCFLDQFLANRHAYMQRYVKAGVSDQQMLLMANIIKDFDRDVMRNESDQGSGNAPAASAGAGTSAGASTKWQTSMIRFSGAAGRYIHNLISTSLLSEQLQSNLLQHLSISPWSTDTNTWPLQVYPSTLSVLVQILLLKPTQEKEAACLSVWHRLINTLVEGVCSSNTASDSDYEDLNIEHAQLLLFLFHSLNLMQKKSILLLTAGGVIRCAEVCRGISEDRPVKNSQIMLLSRLLLFLEYLMKHLYNAPPELLDQVRWNLFSVSSMPDTQKITDLLNCRTKLNSYCRHDIEENFRKSAGEYGSSIRPTFYSLVMGDPEISYWAQEFKLDGLAWNFILCTPDKLKYPLLVDALTDILSITDMSMYSKEKDKEASMHNLCAIQYCFTIAWKLNLGLPPSTSHVESLKAERSPNLHSLMWSIRLPLASSHYLVVSSLIKQGMYTQYAETLWTHVGDIGADIKYSLKQTILGVEAF

Further lines, the binder ahead of its results:

B1: Flag tagged Poe-F3 (aa 2301-3500) (domain or fragment, UniProt Q9VLT5 2301-3500)
chain: TGHPGLVYASMQTSNNPIILMITPERIYLQEIKAQSAKSRIMDVVGIRHAVAGVEKTTLLLLCEDGSLRIFSAQPEYTSFWLSPQVQPFGNQLYSSTLMAKGGGSGSTSKSKSNTASGKMTSRKASQQQKQPTAGGQPVFPIDFFEHCNMLADVEFGGNDLLQIYNKQKLKTRLFSTGMFVASTRSNGFTLEVINNDPNVVIVGIRVLIGTQDVQRAPQSVTILGRTIPTPVRRARWFDIPLTREEMLQSDKLLKVVFAKAPDPEHVTLLDCIEVYGKSKELVGWPDESEDVTVPGSSAPAVSSSQASSANFGEGFNCITQLDRMANHLLEVMDCALHLLGSGVPASMRQKAVKTASALLLLPTPNPVQTQARYVLATLYGTRALYHNYKDGVLLQFVNRELQSMQPKLEKLETLREIDPEAFYRLVLMVRGIANARPQSLAKICVENNYDIVPTLMGIVLELHKVTPTLDEPVNIVKRGLCQPETIVHCLVEIMYGFALADPGQVGRMTKYFIDLLKHDASVISHSAKEALILLLSPRMKRRKVAIVTPPACSTPTPSTSTMQALQAAASSAASDIIEEAAGVVVDGSVGGGGLPEPNADAEGAAVGVGGVGQQQMLNLEAFMGGGFPRLLGLPEDADDEAIMDIAIALSLQQHGGDANALQSLQQGLANLQGIRQATAMAAAVNAAANVSLGGSDDDEGSNVATDGSTLRTSPAEPAGSGGSESGGSGVESIGGTSARSSNFGDHANASPPRQGSTKDDQEQPGPSGVAGSGGVAVLSAMSSSEDNEANEDDKLSKLHDLRIAVLESIIQHLGTFDLCNGLQAIPLIQVILMLTTDLNGNNERDQQVLHDLLTALVDYVEIGKRGAAARMETKCPGNEVRLALLSLFGVLMGKTKSKQTGTTSPPHQFKDNSSFVASTTANVLSKSGAFVYALEALNTLLVHWKNVLGDPYAAGGGLASQSAQASGGASGPGVQLLKPIKHGPKPDISILIPHNYLKNYPDIFESYDGLLTEIIVRLPYQILRLSSAHPDNYDSGFCEAMTFTLCEYMMLNLNTLLRRQVRKLLMYICGSKEKFRMYRDGHSLDAHFRVVKRVCNIVSSKTGAPYNANPPMLSYDALVELTEHLRTCQEISQMRTGNWQKFCVVHEDALAMLMEIACYQLDDGVSPIIIQLLQAAVCNLPPPSGSKQAQPQPSTSSAS
binding [1]: binds

B5: Poe^F1 (aa 1-1100), yeast two-hybrid fusion (domain or fragment, UniProt Q9VLT5 1-1100)
chain: B4 chain
binding [2]: binds

B6: Flag tagged Poe-F2-ZnF (aa 1621-2040) (domain or fragment, UniProt Q9VLT5 1621-2040)
chain: NPSEESSQACDHSDSERNGALLLSFVKSLVKDQSKASQIAPPLFQALLQLGQTLISPPQEGCDFADVLQIMITLADASPARGHVALFNTTLLWLELAKLQLPDKHLKHAENVSAQLRYLSELLQSIGFRGSRQHNPPWDDELQTDIDELYDELAEEGEQDSLLDDSDEDTLNNKLCTFSQTQKEFMNQHWYHCHTCNMINTVGVCSVCARVCHKGHDVSYAKYGNFFCDCGAKEDGSCQALSRRIGSNEVRDSAGIGSYLPSHMSLLAGKKRSSLPVGQPVLTRKDSLTNERIAVLTKLLEPYRETLQHQDQWLLVVRCILEYFDLLLPSINENCMLYSIVGCHKRATAALERLHLLEQSFQVTDQLMFATLGSQEGAFENVRMNYSGDQGQTIKHLLSSGVVRRVAFCCLSSPHGRRQQ
binding [1]: binds

B7: Poe^F2-ZnF (aa 1621-2040), yeast two-hybrid fusion (domain or fragment, UniProt Q9VLT5 1621-2040)
chain: B6 chain
binding [2]: binds
